Measurements taken from PMC9343881.
These are yes or no findings as the source states them, for the method shown. Binding seen in cells or lysates may run through a third protein. These calls come from enrichment with a bait or labelling near it, and not all partners need be listed.

The chains behind the UniProt entries cited, without tags or fusion partners.
UniProt P06821: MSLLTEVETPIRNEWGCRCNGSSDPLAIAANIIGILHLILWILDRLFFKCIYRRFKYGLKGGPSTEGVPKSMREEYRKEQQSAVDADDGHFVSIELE

Biological target: M2 used in the immunoprecipitation with mass spectrometry (IP-MS) (influenza A virus (strain not stated for this experiment)) (UniProt P06821)
Experiment: affinity purification with mass spectrometry

B1: endogenous YWHAG (protein, UniProt P61981 1-247)
chain: MVDREQLVQKARLAEQAERYDDMAAAMKNVTELNEPLSNEERNLLSVAYKNVVGARRSSWRVISSIEQKTSADGNEKKIEMVRAYREKIEKELEAVCQDVLSLLDNYLIKNCSETQYESKVFYLKMKGDYYRYLAEVATGEKRATVVESSEKAYSEAHEISKEHMQPTHPIRLGLALNYSVFYYEIQNAPEQACHLAKTAFDDAIAELDTLNEDSYKDSTLIMQLLRDNLTLWTSDQQDDDGGEGNN
binding: binds
